These are yes or no findings as the source states them, for the method shown. Binding seen in cells or lysates may run through a third protein. A result given as binding can be weak or reduced; the word gives no strength.
Target: Drosophila Ccdc85 (Drosophila) (UniProt Q9VQK1)
Test: co-IP; as a1, FLAG-Ccdc85 IP from S2 cells without ASPP co-transfection (S2 cells do not express endogenous ASPP)

Sequences of proteins named here, by UniProt entry; tags and fusion partners are left off. A change or cut given only in a name is not applied to a line headed by its entry.
UniProt Q9VQK1: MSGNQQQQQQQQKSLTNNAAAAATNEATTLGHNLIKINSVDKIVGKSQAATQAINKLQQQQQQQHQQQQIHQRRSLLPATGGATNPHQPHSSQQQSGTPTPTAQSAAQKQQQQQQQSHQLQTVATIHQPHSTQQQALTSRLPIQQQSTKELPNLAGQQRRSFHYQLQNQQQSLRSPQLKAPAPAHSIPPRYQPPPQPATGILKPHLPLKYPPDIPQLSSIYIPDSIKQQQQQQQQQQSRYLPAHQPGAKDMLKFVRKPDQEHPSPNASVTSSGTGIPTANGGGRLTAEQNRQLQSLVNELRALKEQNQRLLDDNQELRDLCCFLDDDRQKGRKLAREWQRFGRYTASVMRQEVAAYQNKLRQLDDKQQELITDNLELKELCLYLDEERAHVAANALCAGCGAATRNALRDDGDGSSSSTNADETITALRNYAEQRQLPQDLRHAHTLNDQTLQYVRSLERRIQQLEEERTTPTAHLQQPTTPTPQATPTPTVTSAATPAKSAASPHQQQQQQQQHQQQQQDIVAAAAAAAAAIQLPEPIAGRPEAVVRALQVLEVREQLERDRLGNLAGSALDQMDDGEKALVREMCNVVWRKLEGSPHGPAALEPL
UniProt P48461: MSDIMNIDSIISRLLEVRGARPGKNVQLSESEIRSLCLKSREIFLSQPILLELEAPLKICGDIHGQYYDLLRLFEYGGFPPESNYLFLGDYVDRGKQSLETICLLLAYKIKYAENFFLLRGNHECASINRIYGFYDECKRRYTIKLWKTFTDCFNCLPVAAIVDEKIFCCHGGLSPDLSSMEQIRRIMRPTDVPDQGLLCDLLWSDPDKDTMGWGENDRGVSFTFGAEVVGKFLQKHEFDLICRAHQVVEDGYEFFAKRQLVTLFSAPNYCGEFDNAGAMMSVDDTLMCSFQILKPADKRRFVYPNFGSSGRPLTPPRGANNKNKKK

binding: binds weakly
Substance: Drosophila PP1α96A (from UniProt P48461 1-327) (enzyme)

Source: PMC6377682
